Results taken from the supplement of paper PMC12819154, “High-throughput peptide-centric local stability assay extends protein–ligand identification to membrane proteins, tissues and bacteria” (Nature Structural & Molecular Biology, 2025).
The other results are listed elsewhere or left out. Most entries show no effect beyond the scatter of the controls.

By UniProt entry, the sequences of proteins in these tests, tags left out. Where a name states a change or a piece, a line headed by the entry shows the natural chain unless it says otherwise.
UniProt Q9BV29: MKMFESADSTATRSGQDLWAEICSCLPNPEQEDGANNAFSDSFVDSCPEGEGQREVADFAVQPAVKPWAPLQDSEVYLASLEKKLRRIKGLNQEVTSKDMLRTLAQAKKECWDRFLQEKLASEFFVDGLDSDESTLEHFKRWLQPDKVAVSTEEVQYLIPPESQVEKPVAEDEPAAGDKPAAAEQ
UniProt Q9BUR4: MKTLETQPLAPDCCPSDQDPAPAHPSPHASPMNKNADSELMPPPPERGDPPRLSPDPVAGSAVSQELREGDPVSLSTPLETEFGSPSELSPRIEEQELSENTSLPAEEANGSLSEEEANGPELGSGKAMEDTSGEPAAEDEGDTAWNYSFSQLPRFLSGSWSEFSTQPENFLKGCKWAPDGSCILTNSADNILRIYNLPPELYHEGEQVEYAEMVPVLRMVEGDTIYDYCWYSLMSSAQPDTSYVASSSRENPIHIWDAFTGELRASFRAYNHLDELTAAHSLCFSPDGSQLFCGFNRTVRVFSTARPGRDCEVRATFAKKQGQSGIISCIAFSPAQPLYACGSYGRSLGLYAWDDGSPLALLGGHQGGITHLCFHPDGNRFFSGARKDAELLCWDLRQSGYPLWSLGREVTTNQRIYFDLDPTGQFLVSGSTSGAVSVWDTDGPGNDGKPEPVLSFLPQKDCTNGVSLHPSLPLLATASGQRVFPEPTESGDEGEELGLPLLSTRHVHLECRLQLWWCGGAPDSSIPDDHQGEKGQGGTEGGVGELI
UniProt Q9C0E2: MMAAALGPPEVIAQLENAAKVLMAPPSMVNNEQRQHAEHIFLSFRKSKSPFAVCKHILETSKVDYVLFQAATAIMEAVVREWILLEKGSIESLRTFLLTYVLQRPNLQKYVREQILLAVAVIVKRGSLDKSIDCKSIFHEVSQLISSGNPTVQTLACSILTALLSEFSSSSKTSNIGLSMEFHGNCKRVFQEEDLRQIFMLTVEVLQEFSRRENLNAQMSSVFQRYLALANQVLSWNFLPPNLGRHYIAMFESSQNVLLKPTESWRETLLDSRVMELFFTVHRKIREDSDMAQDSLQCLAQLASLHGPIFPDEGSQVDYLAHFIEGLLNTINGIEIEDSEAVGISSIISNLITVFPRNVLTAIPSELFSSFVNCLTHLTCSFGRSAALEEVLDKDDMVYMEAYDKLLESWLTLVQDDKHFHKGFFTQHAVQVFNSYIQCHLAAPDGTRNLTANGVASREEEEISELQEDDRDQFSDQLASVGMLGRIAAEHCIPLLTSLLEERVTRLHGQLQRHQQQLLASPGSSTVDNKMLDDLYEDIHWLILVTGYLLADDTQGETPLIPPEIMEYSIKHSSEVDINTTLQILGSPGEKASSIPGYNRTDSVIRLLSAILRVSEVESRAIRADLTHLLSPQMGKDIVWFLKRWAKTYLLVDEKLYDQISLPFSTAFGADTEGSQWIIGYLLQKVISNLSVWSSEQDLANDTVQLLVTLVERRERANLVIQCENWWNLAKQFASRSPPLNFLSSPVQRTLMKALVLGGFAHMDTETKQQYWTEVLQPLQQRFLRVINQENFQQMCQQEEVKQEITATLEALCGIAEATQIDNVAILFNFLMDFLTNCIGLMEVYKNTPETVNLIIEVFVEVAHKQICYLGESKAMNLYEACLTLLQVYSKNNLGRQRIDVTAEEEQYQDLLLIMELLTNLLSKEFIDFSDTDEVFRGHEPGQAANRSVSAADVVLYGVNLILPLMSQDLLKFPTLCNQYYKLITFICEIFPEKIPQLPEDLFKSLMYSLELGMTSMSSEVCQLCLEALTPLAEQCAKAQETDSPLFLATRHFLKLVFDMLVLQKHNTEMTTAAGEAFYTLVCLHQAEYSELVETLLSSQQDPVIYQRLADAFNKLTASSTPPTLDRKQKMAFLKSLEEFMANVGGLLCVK
UniProt Q9BWP8: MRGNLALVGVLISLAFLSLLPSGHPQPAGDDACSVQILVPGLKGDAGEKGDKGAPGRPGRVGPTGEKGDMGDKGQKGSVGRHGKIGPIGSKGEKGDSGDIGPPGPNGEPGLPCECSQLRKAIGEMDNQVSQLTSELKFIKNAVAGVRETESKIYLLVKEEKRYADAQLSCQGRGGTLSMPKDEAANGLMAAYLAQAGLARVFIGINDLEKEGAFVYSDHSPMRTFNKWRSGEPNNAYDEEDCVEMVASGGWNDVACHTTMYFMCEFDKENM
UniProt Q9BXW9: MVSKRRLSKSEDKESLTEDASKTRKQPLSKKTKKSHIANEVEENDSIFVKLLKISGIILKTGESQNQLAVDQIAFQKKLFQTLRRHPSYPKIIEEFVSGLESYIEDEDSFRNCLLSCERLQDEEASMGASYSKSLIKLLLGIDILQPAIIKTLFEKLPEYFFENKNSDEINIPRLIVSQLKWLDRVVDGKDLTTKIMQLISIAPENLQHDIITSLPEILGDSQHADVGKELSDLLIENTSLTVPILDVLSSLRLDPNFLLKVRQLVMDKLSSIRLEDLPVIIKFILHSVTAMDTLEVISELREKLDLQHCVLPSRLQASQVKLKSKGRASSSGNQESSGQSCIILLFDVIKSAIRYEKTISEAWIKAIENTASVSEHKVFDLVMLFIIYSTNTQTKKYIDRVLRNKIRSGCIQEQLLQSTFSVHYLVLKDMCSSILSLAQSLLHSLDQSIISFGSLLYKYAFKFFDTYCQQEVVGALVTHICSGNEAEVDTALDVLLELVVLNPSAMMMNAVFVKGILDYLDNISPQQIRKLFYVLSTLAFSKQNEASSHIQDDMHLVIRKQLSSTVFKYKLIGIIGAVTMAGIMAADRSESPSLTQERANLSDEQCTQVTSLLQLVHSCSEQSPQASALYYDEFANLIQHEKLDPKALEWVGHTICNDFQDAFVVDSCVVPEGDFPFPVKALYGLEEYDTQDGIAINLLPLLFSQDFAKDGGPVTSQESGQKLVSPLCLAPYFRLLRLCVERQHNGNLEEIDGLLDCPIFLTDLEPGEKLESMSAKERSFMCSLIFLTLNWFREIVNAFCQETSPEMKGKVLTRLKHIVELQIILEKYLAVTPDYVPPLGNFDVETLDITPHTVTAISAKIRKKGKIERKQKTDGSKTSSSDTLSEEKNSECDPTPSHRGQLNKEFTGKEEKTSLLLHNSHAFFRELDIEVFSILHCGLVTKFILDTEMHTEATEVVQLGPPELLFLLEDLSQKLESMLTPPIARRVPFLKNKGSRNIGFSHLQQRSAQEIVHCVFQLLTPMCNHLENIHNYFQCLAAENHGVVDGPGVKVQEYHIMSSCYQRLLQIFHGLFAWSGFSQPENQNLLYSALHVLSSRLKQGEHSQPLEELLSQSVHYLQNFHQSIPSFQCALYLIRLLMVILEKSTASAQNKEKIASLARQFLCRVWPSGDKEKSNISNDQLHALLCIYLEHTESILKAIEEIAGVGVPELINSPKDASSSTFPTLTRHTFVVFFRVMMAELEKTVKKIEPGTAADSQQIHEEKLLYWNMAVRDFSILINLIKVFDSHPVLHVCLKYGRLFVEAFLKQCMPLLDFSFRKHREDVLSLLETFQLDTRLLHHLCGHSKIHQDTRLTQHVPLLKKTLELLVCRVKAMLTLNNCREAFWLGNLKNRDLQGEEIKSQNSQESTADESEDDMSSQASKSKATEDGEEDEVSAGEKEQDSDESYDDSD
UniProt Q9BW91: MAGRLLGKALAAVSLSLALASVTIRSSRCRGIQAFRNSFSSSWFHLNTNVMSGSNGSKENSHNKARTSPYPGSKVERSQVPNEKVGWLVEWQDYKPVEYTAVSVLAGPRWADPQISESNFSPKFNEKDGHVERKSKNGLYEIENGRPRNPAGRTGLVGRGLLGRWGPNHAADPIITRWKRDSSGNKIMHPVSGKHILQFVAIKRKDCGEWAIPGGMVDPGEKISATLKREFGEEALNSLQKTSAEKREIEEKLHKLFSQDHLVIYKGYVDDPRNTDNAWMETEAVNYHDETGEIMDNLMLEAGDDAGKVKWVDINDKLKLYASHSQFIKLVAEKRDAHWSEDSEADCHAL
UniProt Q9GZR7: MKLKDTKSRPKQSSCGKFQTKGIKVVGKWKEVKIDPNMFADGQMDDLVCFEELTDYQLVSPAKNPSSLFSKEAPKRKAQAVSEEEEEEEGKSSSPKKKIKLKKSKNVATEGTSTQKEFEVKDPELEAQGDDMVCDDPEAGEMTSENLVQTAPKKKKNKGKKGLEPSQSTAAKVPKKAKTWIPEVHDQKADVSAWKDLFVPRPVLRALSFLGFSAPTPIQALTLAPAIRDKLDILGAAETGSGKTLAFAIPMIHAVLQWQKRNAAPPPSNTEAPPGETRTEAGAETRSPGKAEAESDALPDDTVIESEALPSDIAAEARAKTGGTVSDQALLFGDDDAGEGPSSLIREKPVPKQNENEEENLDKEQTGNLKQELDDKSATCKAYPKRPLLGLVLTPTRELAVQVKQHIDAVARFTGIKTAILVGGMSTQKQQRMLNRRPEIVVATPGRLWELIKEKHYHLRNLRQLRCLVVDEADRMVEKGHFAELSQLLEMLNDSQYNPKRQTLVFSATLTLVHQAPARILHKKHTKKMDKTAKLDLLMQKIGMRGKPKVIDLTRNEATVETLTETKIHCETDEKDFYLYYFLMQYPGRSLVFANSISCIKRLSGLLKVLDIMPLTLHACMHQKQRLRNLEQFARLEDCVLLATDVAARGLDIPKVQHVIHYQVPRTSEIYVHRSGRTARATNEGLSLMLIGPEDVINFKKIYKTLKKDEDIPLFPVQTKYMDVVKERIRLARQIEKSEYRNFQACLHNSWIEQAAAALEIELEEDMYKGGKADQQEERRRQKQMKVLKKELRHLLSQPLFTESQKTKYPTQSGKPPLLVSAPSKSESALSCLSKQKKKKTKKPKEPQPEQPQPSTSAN
UniProt Q9C0B2: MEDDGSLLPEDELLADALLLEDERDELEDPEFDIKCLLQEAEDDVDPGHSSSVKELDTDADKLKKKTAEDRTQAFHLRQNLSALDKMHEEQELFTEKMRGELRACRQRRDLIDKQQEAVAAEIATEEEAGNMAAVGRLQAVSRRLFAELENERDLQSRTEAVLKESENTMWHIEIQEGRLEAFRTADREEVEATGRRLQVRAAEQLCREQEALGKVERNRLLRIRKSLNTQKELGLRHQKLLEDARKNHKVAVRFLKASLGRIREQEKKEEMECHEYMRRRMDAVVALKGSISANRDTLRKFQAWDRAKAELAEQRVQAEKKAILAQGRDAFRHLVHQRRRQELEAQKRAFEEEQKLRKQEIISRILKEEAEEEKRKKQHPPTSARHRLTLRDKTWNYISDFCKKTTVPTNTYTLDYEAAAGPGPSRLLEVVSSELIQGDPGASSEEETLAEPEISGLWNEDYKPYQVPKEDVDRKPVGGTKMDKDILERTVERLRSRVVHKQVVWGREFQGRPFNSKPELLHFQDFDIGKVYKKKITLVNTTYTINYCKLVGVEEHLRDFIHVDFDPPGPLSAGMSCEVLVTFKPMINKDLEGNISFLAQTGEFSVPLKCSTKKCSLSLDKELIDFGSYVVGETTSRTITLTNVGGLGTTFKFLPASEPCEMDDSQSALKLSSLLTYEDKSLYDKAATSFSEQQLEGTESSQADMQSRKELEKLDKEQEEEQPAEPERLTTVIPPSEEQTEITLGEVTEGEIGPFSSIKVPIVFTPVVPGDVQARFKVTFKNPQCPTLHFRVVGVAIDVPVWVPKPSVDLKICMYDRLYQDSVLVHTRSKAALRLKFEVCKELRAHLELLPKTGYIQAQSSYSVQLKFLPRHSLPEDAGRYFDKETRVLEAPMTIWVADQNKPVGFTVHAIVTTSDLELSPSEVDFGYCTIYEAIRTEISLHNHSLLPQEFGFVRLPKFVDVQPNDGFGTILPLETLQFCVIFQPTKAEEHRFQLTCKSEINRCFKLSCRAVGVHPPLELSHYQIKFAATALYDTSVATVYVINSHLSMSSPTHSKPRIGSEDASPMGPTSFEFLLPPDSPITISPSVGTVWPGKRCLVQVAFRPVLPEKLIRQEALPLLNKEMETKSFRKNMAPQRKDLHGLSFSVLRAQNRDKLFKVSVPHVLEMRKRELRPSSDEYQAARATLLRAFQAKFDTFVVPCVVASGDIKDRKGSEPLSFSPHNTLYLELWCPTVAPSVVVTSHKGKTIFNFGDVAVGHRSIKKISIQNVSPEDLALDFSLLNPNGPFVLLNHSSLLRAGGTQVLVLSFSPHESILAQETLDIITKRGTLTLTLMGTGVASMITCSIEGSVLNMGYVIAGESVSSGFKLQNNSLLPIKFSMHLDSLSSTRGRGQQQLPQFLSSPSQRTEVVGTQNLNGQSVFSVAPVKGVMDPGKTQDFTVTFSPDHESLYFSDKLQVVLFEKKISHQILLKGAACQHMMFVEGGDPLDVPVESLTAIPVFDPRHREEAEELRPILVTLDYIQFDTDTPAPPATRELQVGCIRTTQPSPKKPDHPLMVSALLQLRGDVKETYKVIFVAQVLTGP
UniProt Q9BX68: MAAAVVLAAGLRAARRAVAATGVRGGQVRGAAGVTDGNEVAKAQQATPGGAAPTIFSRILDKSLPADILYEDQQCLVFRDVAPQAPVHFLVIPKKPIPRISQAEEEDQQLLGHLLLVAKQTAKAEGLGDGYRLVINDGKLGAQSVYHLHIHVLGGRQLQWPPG

The targets below were run with Cc1nc(Nc2ncc(C(=O)Nc3c(C)cccc3Cl)s2)cc(N2CCN(CCO)CC2)n1 [dasatinib] (assay: log2 fold change of tryptic peptide abundance, ligand vs vehicle (limited proteolysis) (log2 ratio); higher = more trypsin-susceptible (destabilized)). Settings: ligand concentration: 5 uM; sample: K562 cleared lysate.
Target “UniProt Q9BV29 (peptide sequence: KECWDRFLQEK, peptide start residue: 109)” has a log2 fold change of 0.136.
Work on “UniProt Q9BUR4 (peptide sequence: NADSELMPPPPERGDPPR, peptide start residue: 35)” yielded a log2 fold change of -0.141.
Work on “XPO4 (peptide sequence: SKSPFAVCK, peptide start residue: 47) (UniProt Q9C0E2)” yielded a log2 fold change of 0.28.
With “COLEC11 (peptide sequence: YADAQLSCQGR, peptide start residue: 163) (UniProt Q9BWP8)” the log2 fold change was -0.0619.
Work on “FANCD2 (peptide sequence: QCMPLLDFSFRK, peptide start residue: 1308) (UniProt Q9BXW9)” yielded a log2 fold change of 0.331.
In the case of “NUDT9 (peptide sequence: RKDCGEWAIPGGMVDPGEK, peptide start residue: 204) (UniProt Q9BW91)”, the log2 fold change is reported as 0.528.
In the case of “DDX24 (peptide sequence: TWIPEVHDQKADVSAWK, peptide start residue: 179) (UniProt Q9GZR7)”, the log2 fold change is reported as 0.486.
For “SNRNP25 (peptide sequence: TYHLTSAGEK, peptide start residue: 95) (UniProt Q9BV90)”, the log2 fold change was -0.123.
Work on “UniProt Q9C0B2 (peptide sequence: TQAFHLR, peptide start residue: 72)” yielded a log2 fold change of -0.212.
“HINT2 (peptide sequence: AEGLGDGYR, peptide start residue: 124) (UniProt Q9BX68)” was tested, and the log2 fold change was 0.193.
“ZNF407 (peptide sequence: AGLEEQGRPGAK, peptide start residue: 2006) (UniProt Q9C0G0)” showed a log2 fold change of 0.604.
